# Experiment: Sealed system extraction of cork
# Design: species or system Quercus suber
# Conditions: Cork 0.7 g, Solvent 5 mL, 100° C. 6 hours, 3 cycles
structure (smiles),measurement,setting,value
"O [H2O, water]",Sealed system Yield (extraction yield),0% of water in NADES,4.2%
same,"Concentration of extract, Cork","sealed system, mextract/vsolvent",0.0178 g/ml

# — patent US20230415070A1, “EUTECTIC COMPOSITIONS, METHODS AND USES THEREOF” (Universidade do Minho, priority 2020, published 2023)
